Consider 8 molecules from paper PMC11839074.

Protein sequences, listed by entry. Tags and fused reporters are not part of them. Lines headed by an entry give the natural chain unless they say otherwise; changes in a name come on top. Residues count along the entry.
UniProt Q3UCV8: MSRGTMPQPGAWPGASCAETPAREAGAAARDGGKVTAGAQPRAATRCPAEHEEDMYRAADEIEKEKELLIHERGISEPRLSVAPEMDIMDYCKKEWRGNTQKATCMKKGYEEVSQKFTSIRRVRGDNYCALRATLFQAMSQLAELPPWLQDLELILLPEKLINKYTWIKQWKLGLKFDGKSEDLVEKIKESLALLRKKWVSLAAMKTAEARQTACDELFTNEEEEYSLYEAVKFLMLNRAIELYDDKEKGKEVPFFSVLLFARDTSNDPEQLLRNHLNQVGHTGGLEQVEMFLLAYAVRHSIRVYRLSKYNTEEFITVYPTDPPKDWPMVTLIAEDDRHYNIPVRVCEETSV
UniProt P01029, residues 20-1738: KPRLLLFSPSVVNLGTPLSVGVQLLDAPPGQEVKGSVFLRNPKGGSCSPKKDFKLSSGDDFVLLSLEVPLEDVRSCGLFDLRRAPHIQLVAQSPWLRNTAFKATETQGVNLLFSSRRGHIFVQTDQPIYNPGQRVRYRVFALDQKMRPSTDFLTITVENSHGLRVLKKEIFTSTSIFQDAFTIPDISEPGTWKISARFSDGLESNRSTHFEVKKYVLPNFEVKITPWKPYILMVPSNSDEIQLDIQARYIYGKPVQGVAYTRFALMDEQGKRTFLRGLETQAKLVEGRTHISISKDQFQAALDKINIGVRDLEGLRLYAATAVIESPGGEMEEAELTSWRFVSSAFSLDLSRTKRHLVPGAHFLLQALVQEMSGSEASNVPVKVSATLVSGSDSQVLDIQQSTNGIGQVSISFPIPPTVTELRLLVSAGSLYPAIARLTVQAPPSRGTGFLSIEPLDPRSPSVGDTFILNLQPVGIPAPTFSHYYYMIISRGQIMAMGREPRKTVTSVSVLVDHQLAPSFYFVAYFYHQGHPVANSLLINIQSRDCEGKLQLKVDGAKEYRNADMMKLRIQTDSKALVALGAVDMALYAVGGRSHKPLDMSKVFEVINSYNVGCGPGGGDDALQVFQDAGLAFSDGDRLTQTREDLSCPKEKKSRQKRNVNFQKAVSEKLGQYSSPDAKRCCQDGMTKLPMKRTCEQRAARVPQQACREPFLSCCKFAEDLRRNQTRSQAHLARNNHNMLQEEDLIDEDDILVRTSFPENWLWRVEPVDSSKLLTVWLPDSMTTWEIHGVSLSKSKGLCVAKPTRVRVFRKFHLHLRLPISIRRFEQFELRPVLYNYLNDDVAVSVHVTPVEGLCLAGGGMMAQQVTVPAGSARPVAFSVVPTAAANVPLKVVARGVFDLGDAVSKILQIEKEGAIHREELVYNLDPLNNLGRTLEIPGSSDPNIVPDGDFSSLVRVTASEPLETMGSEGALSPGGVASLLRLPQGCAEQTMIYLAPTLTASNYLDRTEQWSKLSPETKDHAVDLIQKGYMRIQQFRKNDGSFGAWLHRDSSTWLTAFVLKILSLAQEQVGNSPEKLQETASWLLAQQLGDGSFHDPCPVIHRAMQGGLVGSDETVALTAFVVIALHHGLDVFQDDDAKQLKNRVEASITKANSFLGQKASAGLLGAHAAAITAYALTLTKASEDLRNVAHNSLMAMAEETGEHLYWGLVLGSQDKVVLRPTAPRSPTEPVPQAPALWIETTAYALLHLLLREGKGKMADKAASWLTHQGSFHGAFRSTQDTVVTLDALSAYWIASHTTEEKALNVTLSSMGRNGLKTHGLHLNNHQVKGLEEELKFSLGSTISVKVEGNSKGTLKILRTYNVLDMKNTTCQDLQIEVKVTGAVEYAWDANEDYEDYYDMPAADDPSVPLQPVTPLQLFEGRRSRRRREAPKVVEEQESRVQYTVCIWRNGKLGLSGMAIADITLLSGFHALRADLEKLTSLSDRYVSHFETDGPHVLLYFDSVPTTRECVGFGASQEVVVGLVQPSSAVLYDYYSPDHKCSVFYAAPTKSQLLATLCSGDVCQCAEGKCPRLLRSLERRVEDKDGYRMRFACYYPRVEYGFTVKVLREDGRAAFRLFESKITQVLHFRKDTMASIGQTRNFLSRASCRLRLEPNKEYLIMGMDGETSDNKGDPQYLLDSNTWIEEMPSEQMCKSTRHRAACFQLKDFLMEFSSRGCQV
UniProt P14106, residues 26-253: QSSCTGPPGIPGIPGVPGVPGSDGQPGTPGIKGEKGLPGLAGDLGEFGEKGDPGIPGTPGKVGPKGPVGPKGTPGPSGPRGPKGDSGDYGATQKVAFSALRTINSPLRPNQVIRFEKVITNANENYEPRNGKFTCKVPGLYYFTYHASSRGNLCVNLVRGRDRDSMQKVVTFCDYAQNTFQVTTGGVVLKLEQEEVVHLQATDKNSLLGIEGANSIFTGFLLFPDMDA
UniProt P01027, residues 25-1663: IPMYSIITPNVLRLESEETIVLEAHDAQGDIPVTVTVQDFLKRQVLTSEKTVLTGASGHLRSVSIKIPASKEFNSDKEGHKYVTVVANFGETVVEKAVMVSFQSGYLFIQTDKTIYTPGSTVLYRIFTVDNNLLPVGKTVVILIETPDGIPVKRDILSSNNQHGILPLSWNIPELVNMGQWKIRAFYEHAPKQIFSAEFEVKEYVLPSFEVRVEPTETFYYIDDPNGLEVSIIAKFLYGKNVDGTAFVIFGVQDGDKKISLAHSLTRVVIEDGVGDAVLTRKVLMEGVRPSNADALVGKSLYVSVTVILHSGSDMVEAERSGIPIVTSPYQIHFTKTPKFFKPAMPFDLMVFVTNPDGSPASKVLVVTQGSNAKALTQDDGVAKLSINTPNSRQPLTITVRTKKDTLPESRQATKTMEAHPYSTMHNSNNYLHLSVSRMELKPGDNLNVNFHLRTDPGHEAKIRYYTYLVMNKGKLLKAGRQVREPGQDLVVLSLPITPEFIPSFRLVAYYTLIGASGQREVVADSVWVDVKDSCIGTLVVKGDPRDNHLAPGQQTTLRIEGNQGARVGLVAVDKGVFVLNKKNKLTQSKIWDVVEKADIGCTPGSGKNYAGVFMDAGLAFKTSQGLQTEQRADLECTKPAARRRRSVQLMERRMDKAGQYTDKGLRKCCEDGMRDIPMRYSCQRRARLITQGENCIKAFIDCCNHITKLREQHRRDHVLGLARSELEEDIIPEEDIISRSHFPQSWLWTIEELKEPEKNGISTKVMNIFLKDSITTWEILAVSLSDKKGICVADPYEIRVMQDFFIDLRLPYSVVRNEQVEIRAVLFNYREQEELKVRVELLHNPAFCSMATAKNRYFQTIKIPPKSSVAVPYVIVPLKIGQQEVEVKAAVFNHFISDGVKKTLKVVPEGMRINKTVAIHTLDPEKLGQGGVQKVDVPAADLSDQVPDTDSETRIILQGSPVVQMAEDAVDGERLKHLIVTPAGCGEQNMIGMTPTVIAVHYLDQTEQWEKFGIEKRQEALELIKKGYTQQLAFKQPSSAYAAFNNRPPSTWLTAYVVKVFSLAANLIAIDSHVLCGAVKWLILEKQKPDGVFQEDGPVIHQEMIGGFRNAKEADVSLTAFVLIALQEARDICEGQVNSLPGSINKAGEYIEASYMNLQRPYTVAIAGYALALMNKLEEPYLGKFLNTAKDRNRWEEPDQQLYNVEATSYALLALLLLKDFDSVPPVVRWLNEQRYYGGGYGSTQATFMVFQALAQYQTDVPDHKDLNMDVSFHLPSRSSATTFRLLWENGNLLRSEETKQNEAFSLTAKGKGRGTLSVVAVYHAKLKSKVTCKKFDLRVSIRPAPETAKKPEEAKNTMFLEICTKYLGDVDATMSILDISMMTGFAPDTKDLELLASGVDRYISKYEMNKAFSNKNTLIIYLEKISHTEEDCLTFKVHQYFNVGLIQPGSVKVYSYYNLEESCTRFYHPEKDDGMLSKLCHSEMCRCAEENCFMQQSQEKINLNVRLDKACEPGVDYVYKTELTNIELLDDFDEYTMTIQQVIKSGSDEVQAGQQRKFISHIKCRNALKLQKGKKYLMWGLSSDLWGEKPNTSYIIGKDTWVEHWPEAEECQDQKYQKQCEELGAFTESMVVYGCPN

Results are given in words; binding and its absence hold for the method and conditions named. Binding seen in cells or lysates may run through a third protein. These calls come from enrichment with a bait or labelling near it, and not all partners need be listed.

Test [1] addresses OTULIN (mouse (endogenous in hippocampal tissue)) (UniProt Q3UCV8). The test is described as follows: affinity purification with mass spectrometry; PS19 Tg mice, 8 months, hippocampal lysate (IP lysis buffer, 0.5% NP-40, 150 mM NaCl); OTULIN antibody on Dynabeads protein A, 4 °C overnight, IgG as control, three replicates; LC-MS/MS, limma and SAINTexpress scoring.
Test [2] shares this target. In words: affinity purification with mass spectrometry; nTg littermate control mice, 8 months, hippocampal lysate (IP lysis buffer, 0.5% NP-40, 150 mM NaCl); OTULIN antibody on Dynabeads protein A, 4 °C overnight, IgG as control, three replicates; LC-MS/MS, limma and SAINTexpress scoring.
The target is the same in test [3]. The test is described as above. This is another data set of the same source.

Regarding C4B (from UniProt P01029 20-1738), the binding result in test [1] and in test [2] was “binds” throughout. With C1QB (from UniProt P14106 26-253), the binding entry in test [1] and in test [2] was “binds” in each case. Take C3 (from UniProt P01027 25-1663): the binding entry in test [1] and in test [2] was “binds” in each case. Take MYCBP2 (from UniProt Q7TPH6 1-4749): the binding entry in test [1] and in test [2] was “binds” throughout.

B1: Cactin (CACTIN) (protein, UniProt Q9CS00 1-772)
chain: MRGAGRQMGRDSRSRSRSVGRRGRKQRSRSRGRSRSRSRSRSRSRSRSRSRSRSHGRSSRRRREHERRRERKRRSRGRRSDSEGEQRQKSRRRSQSLRPPRWHSQNQSSCSDSGEERAQGSWARKGHRRSWSPGSSASSLDSPRRSRSPGTATLALSQQQSLQERLRLREERKQQEELLKAFETPEEKRARRLAKKEAKERKKREKMGWGEEYMGYTNTDNPFGDNNLLGTFIWNKALEKKGISHLEEKELKERNKRIQEDNRLELQKVKQLRLEREREKAMREQELELLQREKEAEHFKTWEEQEDSFHLRQAKLRSKIRIRDGRAKPIDLLAKYISAEDDDLAVEMHEPYTFLNGLTVADMEDLLEDIQVYMELEQGKNVDFWRDMTTITEDEIAKLRKLEASGKGPGERREGVNASVSSDVQSVFKGKTYNQLQVIFQGIEGKIRAGGPNLDMGYWESLLQQLRAHMARARLRERHQDVLRQKLFKLKQEQGVESEPLFPILKSEPSAAHSPEPEERPPSPGTSVDPVEPVEPEEATAPGEAEGEAEGEAVLMEEDLIQQSLADYDAGRYSPRLLTAHELPLDAHVLEPHEDLQRLQLSRQQLQATGDASESAEDIFFRRAREGMGQDEAQFSVEMPLGGRAYLWADKYRPRKPRFFNRVHTGFEWNKYNQTHYDFDNPPPKIVQGYKFNIFYPDLIRKRATPEYFLEACADNRDFAILRFHAGPPYEDIAFKIVSREWEYSHRHGFRCQFANGIFQLWFHFKRYRYRR
Regarding B1, the binding result in test [1] is reported as “binds”.

B2: C1QC (protein, UniProt Q02105 30-246)
chain: SAGCYGIPGMPGMPGAPGKDGHDGLQGPKGEPGIPAVPGTRGPKGQKGEPGMPGHRGKNGPRGTSGLPGDPGPRGPPGEPGVEGRYKQKHQSVFTVTRQTTQYPEANALVRFNSVVTNPQGHYNPSTGKFTCEVPGLYYFVYYTSHTANLCVHLNLNLARVASFCDHMFNSKQVSSGGVLLRLQRGDEVWLSVNDYNGMVGIEGSNSVFSGFLLFPD
As for B2, the binding entry in test [1] and in test [3] was “binds” throughout.

B3: TRIM21 (protein, UniProt Q62191 1-470)
chain: MSPSTTSKMSLEKMWEEVTCSICLDPMVEPMSIECGHCFCKECIFEVGKNGGSSCPECRQQFLLRNLRPNRHIANMVENLKQIAQNTKKSTQETHCMKHGEKLHLFCEEDGQALCWVCAQSGKHRDHTRVPIEEAAKVYQEKIHVVLEKLRKGKELAEKMEMDLTMQRTDWKRNIDTQKSRIHAEFALQNSLLAQEEQRQLQRLEKDQREYLRLLGKKEAELAEKNQALQELISELERRIRGSELELLQEVRIILERSGSWNLDTLDIDAPDLTSTCPVPGRKKMLRTCWVHITLDRNTANSWLIISKDRRQVRMGDTHQNVSDNKERFSNYPMVLGAQRFSSGKMYWEVDVTQKEAWDLGVCRDSVQRKGQFSLSPENGFWTIWLWQDSYEAGTSPQTTLHIQVPPCQIGIFVDYEAGVVSFYNITDHGSLIYTFSECVFAGPLRPFFNVGFNYSGGNAAPLKLCPLKM
As to B3, the binding result in test [1] and in test [3] was “binds” each time.

B4: C1QA (protein, UniProt P98086 23-245)
chain: EDVCRAPNGKDGAPGNPGRPGRPGLKGERGEPGAAGIRTGIRGFKGDPGESGPPGKPGNVGLPGPSGPLGDSGPQGLKGVKGNPGNIRDQPRPAFSAIRQNPMTLGNVVIFDKVLTNQESPYQNHTGRFICAVPGFYYFNFQVISKWDLCLFIKSSSGGQPRDSLSFSNTNNKGLFQVLAGGTVLQLRRGDEVWIEKDPAKGRIYQGTEADSIFSGFLIFPSA
As for B4, the binding entry in test [1] and in test [3] was “binds” in each case.
